Data reported in patent US20250354175, “ATTP MV4-DERIVED SITE-SPECIFIC RECOMBINATION AND ITS USE FOR INTEGRATION OF SEQUENCE OF INTEREST” (INSTITUT NATIONAL DE RECHERCHE POUR L'AGRICULTURE, …, published 2025).

Key:
[1] = test system: T1, mv4Int (369 aa integrase) (Lactobacillus delbrueckii bacteriophage mv4); experiment: enzyme reaction in vitro; conditions: purified recombinant protein, protein details: expressed from pET15b, nickel affinity purified
T1 sequence: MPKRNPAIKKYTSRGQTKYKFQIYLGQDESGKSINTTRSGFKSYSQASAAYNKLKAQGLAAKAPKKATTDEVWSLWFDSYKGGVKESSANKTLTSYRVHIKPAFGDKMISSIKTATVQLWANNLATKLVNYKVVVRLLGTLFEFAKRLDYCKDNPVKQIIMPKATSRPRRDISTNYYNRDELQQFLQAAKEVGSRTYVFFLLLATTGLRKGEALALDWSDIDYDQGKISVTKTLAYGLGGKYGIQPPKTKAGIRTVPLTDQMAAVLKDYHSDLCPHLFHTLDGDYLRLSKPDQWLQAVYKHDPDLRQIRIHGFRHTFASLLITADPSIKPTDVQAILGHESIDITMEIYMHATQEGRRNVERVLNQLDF

[2] = test system: T1, mv4Int (369 aa integrase) (Lactobacillus delbrueckii bacteriophage mv4); experiment: EMSA; conditions: complexes I, II, III at much lower efficiency than WT; purified recombinant protein; protein details: expressed from pET15b, nickel affinity purified; label: Cy3 on bottom strand; variant of COC' WT core-attP 35 bp
[3] = only with adapted attP, label: Cy3

AAAGAAAAGGTTTTCTCCTTAATCAAAGCAATAATCCC (double strand) [attP lacZ3 overlap with attB lacZ3]
activity on this sequence ([1]; recombination with attB lacZ3 detectable only by PCR, very low): less active

AAAGAATGCCAACTCTCCTTAATCAAAGCAATAATCCC (double strand) [attP lacZ2 overlap with attB lacZ2]
activity on this sequence ([1]; recombination with attB lacZ2 detectable only by PCR): less active

AAAGAATTTCGGCTCTCCTTAATCAAAGCAATAATCCC (double strand) [attP lacZ1 overlap with attB lacZ1]
activity on this sequence ([1]; recombination with attB lacZ1 detectable only by PCR): less active

CCCCTTGACTCCTTTTAAAGGTCAAATGGTATCC (double strand) [attB L. lactis tRNASer]
activity on this sequence [1, 3]: active

CCCCTTGTCTCCTTAGAAAGGTCAAATGGTATC (double strand) [attB L. reuteri tRNASer]
activity on this sequence [1, 3]: active

CCCGCTAGCTCCTTTATAAGGTCAAATGGTATC (double strand) [attB L. mesenteroides tRNASer]
activity on this sequence ([1]; only with adapted attP, lower efficiency, label: Cy3): less active

CCCGTCCTTTCCTTAACAAGGTCAAATGGTATC (double strand) [attB S. mutans tRNASer]
activity on this sequence [1, 3]: active

GGTATTGGAACCCGCCTGTACTCTCCTTGCGTAAC (double strand) [XOC' (C mutated, B'/C' site intact)]
binding result [2]: binds more weakly

TTCAAATCCTGTACTCTCCTT (double strand) [attB WT mv4]
activity on this sequence ([1]; recombination with attP WT, 42 C, label: Cy3): active

Weaker means in comparison with the reference protein, sequence or condition of that experiment. Protein sequences can lack the tags named with them. For part of these data: For at least one entry, the source does not settle the construct or the ends of the probe.
